{"source": "patent US20240327495A1", "binders": {"B1": {"name": "His6-Thrombin site-SpyTag003-SBTI (wild-type SBTI) (protein, not shown: small tags and cut ends)", "chain": "DFVLDNEGNPLENGGTYYILSDITAFGGIRAAPTGNERCPLTVVQSRNELDKGIGTIISSPYRIRFIAEGHPLSLKFDSFAVIMLCVGIPTEWSVVEDLPEGPAVKIGENKDAMDGWFRLERVSDDEFNNYKLVFCPQQAEDDKCGDIGISIDHDDGTRRLVVSKNKPLVVQFQKLDKESL"}}, "molecular_target": "β-lactamase (BLA)", "assay": "ELISA, antigen-coated wells, 500 nM gastrobody, detected with polyclonal anti-SBTI antibody", "note": "Results are given in words; binding and its absence hold for the method and conditions named. Tags and fused reporters may be left off the sequences shown.", "data": [{"binder": "B1", "values": [{"measurement": "binding", "value": "no binding (tested: 500 nM)"}]}]}
